According to paper doi:10.1101/405712:
Read-outs that look alike come from different tables or passages of the source. Results are given in words; binding and its absence hold for the method and conditions named. In cells and extracts the contact can be indirect. A yes stands for co-enrichment or nearness to the bait. Other partners may have been found.

Amino acid sequences for entries named in this document (tags omitted).
UniProt P56523: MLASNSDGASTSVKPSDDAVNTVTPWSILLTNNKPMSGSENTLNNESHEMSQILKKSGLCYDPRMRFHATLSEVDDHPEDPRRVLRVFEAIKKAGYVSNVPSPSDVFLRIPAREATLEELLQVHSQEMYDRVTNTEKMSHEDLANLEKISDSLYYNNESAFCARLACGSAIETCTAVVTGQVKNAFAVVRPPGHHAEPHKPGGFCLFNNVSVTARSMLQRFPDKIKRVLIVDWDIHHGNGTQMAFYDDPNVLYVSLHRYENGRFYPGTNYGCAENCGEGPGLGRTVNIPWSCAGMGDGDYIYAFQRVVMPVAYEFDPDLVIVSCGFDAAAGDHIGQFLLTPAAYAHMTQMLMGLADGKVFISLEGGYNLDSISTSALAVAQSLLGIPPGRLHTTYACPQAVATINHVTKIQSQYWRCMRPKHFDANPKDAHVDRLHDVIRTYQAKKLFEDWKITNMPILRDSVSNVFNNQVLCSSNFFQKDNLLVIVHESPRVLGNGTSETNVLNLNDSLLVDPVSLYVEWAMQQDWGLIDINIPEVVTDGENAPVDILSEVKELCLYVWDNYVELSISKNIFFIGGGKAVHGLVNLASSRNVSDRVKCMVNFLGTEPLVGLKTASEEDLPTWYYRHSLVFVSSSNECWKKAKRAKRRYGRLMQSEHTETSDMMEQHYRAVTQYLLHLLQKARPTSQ

Key:
Ccq1^HA (S. pombe) [1] = molecular target: Ccq1^HA (S. pombe) (UniProt Q10432); experiment: affinity purification with mass spectrometry
Ccq1^HA (S. pombe) [2] = molecular target: Ccq1^HA (S. pombe) (UniProt Q10432); experiment: affinity purification with mass spectrometry; remark: listed apart in the source

Clr3 (from UniProt P56523 1-687) (enzyme)
binding (Ccq1^HA (S. pombe) [1]): binds
binding (Ccq1^HA (S. pombe) [2]): binds

B1: Hip1 (protein, UniProt P87314 1-932)
chain: MKIKKIPWLGHFDDRGHRLSIFSIHIHPDGSRIATGGLDGTIRIWSTEAINRENENENENEDLPKQLCCMSTHTGTVTSVRFSPNGQYLASGSDDRVVIIWHKEEAIPGLGSTFGSGEKHTENWRSYRRLLGHDNDIQDLCWSYDSQLVVSVGLDSSIIVWNGTTFERLKRIEAHQSHVKGITFDPAGKYFATESDDRTIKVWRVSDFSIEKTITGPFNNSPLSTYFRRPSWSPDGKHIAAPNAMNGPVSCVSIIERGTWTSEINLIGHEGPVEVTAFNPKLFRDKNDKLVCILACGGQDRSLSIWSSALPRPLLSCQNVFQKSIGDVCWSPDGLSLFLCSYDGNVLVCTFEKEEFGDMVSDEEISKALAKYGHGRHGIVLPESAKQLELEETAYAILKKPSSLSTTDPTLVPQSSSTPKSAQKTPQKLPAFLPNRLTAETVDTNKLTASKEQIASPKRPGPSDNGNEIPTKFVQKVTITKEGKKRVAPQLLTTLSATPSTSRLASTQLQHTGSSQLPPQQFSQPINSLPKGGVPILIVGNKTKVNHENDESDQALQEEKIEEGLLKNYYSSLIDSSTSISNINFEAPRYKTNIVHSLNNEQKYVLEVKNGTSEKNPTRIVALENGNTKWMDYLPRPVILVTGSIHFWSIACDDGSLHLYSLTGSRLLPPIMIESKASFLHCNNAYLLCISSSGMVYAWNVVNKTALFTANSLAPILSRVSNNVTIENNSTDIPHVVIASISKEGVPSVTLSTGETYVYSSTMLCWQRITEPWWAIGSREWDSSGLLQSNTQTESQPLKIYEHRTNNVLMDSGRGKLLQKMVADAITEEGYDDFETIVTINHLENKIASARLLKLDDEFLVTSEVYVRLLMHHGLWQKLEEFLGELRTQTKCSIKLSGREVVAKMLVVLRQAVQTDNEFDRANKLIEKYAST
binding (Ccq1^HA (S. pombe) [1]): binds
binding (Ccq1^HA (S. pombe) [2]): binds
